Results on two compounds are retold here after patent publication US6340560B1, “Aminopolycarboxylic acid chelating agent, heavy metal chelate compound thereof, photographic additive and processing method” (Fuji Photo Film Co., Ltd., priority 1996, dated 2002).

Data set [1] can be described thus: Example 1: residual silver in highest density part after running bleach-fixing process (NBlix), fluorescent X-ray analysis. The note with it: chelating agent 0.17 mol/l with ferric nitrate in bleach-fixing bath, 110 sec, 45° C.
Data set [2] in a line: Example 1: bleaching fog, Dmin (G light) versus standard bleaching solution. The conditions noted are these: relative to standard bleaching solution (Dmin 0.60).
Data set [3] in a line: Example 1: increase in stain during dark wet-heat storage of processed material. The note with it: 60° C., 70% RH, 4 weeks.
The nature of data set [4]: Example 2: residual silver after bleach-fixing (PBlix), fluorescent X-ray method. The note with it: 35° C., chelating agent with ferric nitrate.
A short description of data set [5]: Example 2: Blix decoloring, Dmax (R light) before and after reprocessing (PEDTA).
A short description of data set [6]: Example 5: filter clogging, ageing test of the bleach-fixing solution without photosensitive material. Set-up: key: ◯: scarce clogging; Δ: partial clogging; ×: Substantially the whole filter was clogging, but the liquid could pass through the filter.; ××: the complete clogging, and the liquid extremely difficultly passes through the filter. The note with it: 35° C., one week, without passing photosensitive material.

Data set [7] is described as follows: Example 6: residual rates of developing agent and hydroxylamine in color developer after running process. The conditions noted are these: chelating agent 0.01 mol/l in color developer; for Residual amount of hydroxylamine (pH 9.85) / Residual amount of main ingredient (pH 9.85): pH 9.85, after running; for Residual amount of hydroxylamine (pH 10.25) / Residual amount of main ingredient (pH 10.25): pH 10.25, after running.

A short description of data set [8]: Example 6: precipitate in the color developing solution after running process. Also noted: key: ◯: indicates that the solution contained no precipitate at all.; X: indicates that the larger the numeral, the larger the amount of the precipitate in the solution. The conditions noted are these: color developing solution of pH 10.25 after running.
Data set [9] can be described thus: Example 8: developing agent remaining in aged color developer with added ferric and calcium ion, HPLC. The conditions noted are these: 1 g/l (HEDP 60%: 1.6 g/l), 5 ppm ferric ion, 150 ppm calcium ion, 38° C., 20 days.
Data set [10] is described as follows: Example 8: precipitate in the color developing solution after ageing. Also noted: key: ◯: indicates that no precipitate was formed at all.; indicates that the precipitate was formed. The larger the number of X, the more serious the precipitation. The conditions noted are these: 1 g/l (HEDP 60%: 1.6 g/l); 5 ppm ferric ion, 150 ppm calcium ion; 38° C., 20 days.
Data set [11] can be described thus: Example 9: difference in B density between aged and fresh color developer. The note with it: aged (38° C., 30 days) minus fresh developer; 0.01 mol chelating compound; 5 ppm ferric, 150 ppm calcium ion.
Data set [12] is described as follows: Example 9: precipitation in the color developer after ageing, macroscopic. Also noted: key: G represents no precipitate at all.; Larger the number of B's, the larger the amount of the precipitate. The note with it: 38° C., 30 days; 0.01 mol chelating compound; 5 ppm ferric, 150 ppm calcium ion.
Data set [13] is described as follows: Example 10: turbidity of fixing bath with added ferric ion after ageing. The note with it: 3 g/l in fixing bath with ferric ion, 38° C., 30 days.
A short description of data set [14]: Example 11: increase in magenta stain on ageing of material processed with stabilizer. The conditions noted are these: 100 mg/l in stabilizer; 45° C., 70% RH, one week.

The structures appear in SMILES notation.

As to `CN(CCNC(CC(=O)O)C(=O)O)C(CC(=O)O)C(=O)O` (stereo not shown) [Compound 2], the “Amount of residual silver” value in [1] is reported as 4.4 μm/cm^2. For the same compound, the “Bleaching fog ΔDmin (G)” value in data set [2] is 0.00. Further, the “Increase in stain ΔD (G)” value in data set [3] worked out at 0.01. The “Quantity of residual silver” value was 2.0 μg/cm^2 in data set [4] (bleach-fixing time 20 sec) and 0.9 μg/cm^2 in data set [4] (bleach-fixing time 45 sec). The “Blix decoloring ΔDmax (R)” value in data set [5] (bleach-fixing time 20 sec) and in data set [5] (bleach-fixing time 45 sec) was 0.00 each time. In data set [6], the Clogging of filter entry was “◯”. The “Residual amount of hydroxylamine (pH 9.85)” value in data set [7] came out at 85%. Besides, the results for the “Residual amount of main ingredient (pH 9.85)” value in data set [7] and in [9] were 86% and 87%, respectively. Moreover, the “Residual amount of hydroxylamine (pH 10.25)” value in data set [7] is given as 80%. The “Residual amount of main ingredient (pH 10.25)” value in data set [7] is 83%; in [9], 81%. In addition, the Precipitation entry in [8] and in data set [10] was “◯” each time. Further, in data set [11], the ΔDmax is −0.04. In data set [12], the Precipitate result is given as “G”. For the same compound, the “turbidity of the solution” value in data set [13] was “kept the transparency”. Besides, the “increase in the magenta stain ΔDmin” value in data set [14] is listed as 0.08.
With `CN(CCN(C)C(C(=O)O)C(O)C(=O)O)C(C(=O)O)C(O)C(=O)O` (stereo not shown) [Compound 19], the “Amount of residual silver” value in data set [1] was determined as 7.9 μm/cm^2. In addition, the “Bleaching fog ΔDmin (G)” value in data set [2] worked out at 0.01. For the same compound, the “Increase in stain ΔD (G)” value in data set [3] turned out to be 0.01. In addition, the “Quantity of residual silver” value is 4.0 μg/cm^2 in [4] (bleach-fixing time 20 sec) and 1.8 μg/cm^2 in [4] (bleach-fixing time 45 sec). In addition, the “Blix decoloring ΔDmax (R)” value in data set [5] (bleach-fixing time 20 sec) and in data set [5] (bleach-fixing time 45 sec) was 0.00 in each case. In addition, the Clogging of filter entry in data set [6] was “◯”. The “Residual amount of hydroxylamine (pH 9.85)” value in [7] is given as 72%. In addition, the “Residual amount of main ingredient (pH 9.85)” value came to 80% in data set [7] and 82% in data set [9]. Moreover, in data set [7], the “Residual amount of hydroxylamine (pH 10.25)” value was 71%. Besides, the figures for the “Residual amount of main ingredient (pH 10.25)” value in data set [7] and in data set [9] were 77% and 78%, respectively. The Precipitation result in data set [8] and in data set [10] was “◯” throughout. Besides, the ΔDmax in [11] is −0.05. For the same compound, the Precipitate entry in [12] was “G”. Besides, in [13], the “turbidity of the solution” value is “kept the transparency”. In addition, the “increase in the magenta stain ΔDmin” value in [14] is reported as 0.11.
